Paper doi:10.1101/2023.11.02.565247
Read-outs that look alike come from different tables or passages of the source. No constants are given. Whether binding was seen depends on the method and setting. Binding seen in cells or lysates may run through a third protein. Some entries that bind do so weakly or less than the wild type. Where a sequence is shown, tags or fusion partners need not be part of it.

The chains behind the UniProt entries cited, without tags or fusion partners.
UniProt P19091: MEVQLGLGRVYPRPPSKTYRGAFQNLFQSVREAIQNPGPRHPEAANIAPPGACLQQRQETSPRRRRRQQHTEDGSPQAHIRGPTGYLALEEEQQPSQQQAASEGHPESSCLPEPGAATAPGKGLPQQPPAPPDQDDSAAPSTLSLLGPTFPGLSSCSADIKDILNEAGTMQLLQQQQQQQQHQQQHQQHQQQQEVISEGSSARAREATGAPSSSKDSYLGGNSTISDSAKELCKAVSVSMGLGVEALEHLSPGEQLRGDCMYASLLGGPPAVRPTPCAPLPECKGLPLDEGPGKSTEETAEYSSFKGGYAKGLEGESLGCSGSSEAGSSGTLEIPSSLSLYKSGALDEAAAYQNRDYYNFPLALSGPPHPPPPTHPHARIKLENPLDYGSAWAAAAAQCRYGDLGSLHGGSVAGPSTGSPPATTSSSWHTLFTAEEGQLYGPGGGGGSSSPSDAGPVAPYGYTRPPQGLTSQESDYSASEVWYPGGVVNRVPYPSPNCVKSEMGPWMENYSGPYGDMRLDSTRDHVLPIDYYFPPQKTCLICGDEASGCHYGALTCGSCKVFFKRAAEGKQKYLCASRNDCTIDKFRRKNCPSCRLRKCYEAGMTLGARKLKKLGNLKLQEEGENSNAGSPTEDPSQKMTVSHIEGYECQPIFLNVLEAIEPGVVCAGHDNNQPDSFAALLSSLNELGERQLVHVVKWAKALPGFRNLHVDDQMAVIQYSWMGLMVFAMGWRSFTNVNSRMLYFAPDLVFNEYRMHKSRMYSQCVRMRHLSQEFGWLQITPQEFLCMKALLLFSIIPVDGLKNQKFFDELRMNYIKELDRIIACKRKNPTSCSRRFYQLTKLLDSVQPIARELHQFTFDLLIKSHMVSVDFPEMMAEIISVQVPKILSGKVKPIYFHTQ

What was measured:
Experiment in all cases: co-IP
[1] = biological target: T1, Myc-PGC1α (peroxisome proliferator-activated receptor gamma coactivator 1-alpha), expressed from adenovirus (mouse) (UniProt O70343)
T1 sequence: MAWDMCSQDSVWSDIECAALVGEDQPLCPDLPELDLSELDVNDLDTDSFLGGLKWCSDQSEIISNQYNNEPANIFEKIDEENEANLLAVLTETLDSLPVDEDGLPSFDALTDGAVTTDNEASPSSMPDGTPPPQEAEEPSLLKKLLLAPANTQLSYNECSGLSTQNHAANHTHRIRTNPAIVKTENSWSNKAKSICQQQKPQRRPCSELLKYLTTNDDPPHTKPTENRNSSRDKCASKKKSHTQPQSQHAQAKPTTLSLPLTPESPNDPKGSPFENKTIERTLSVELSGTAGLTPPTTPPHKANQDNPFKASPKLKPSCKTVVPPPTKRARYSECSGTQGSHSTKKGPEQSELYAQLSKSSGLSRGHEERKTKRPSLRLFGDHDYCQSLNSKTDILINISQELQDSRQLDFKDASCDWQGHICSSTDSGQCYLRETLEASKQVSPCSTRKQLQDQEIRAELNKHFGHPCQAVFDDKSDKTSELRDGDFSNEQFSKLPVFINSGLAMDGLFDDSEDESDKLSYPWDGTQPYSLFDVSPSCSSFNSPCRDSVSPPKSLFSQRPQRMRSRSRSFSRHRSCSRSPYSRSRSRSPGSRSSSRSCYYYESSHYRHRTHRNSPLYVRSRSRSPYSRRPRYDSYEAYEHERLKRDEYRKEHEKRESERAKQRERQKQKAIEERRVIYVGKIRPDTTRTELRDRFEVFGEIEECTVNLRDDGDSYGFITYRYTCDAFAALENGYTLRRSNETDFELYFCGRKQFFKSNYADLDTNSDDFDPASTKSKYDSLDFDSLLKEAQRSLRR

[2] = biological target: T2, HA-tagged mERRα (mouse) (UniProt O08580)
T2 sequence: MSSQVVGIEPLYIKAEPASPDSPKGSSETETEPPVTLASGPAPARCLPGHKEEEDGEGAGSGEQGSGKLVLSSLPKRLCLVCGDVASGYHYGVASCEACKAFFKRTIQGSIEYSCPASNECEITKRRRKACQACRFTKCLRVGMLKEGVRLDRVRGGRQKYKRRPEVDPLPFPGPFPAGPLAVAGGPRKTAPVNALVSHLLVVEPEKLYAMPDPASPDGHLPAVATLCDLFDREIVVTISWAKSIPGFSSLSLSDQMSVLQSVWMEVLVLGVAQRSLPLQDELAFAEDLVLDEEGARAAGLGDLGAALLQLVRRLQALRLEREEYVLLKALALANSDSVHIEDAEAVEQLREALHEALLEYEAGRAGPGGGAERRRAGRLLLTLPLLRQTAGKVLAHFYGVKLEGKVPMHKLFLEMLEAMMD

[3] = biological target: T2, HA-tagged mERRα (mouse); remark: listed apart in the source
[4] = biological target: T1, Myc-PGC1α (peroxisome proliferator-activated receptor gamma coactivator 1-alpha), expressed from adenovirus (mouse); remark: listed apart in the source

## Androgen receptor (AR), endogenous in hepatocytes (from UniProt P19091 1-899)
[1]
  binding: binds

## Flag-mAR (from UniProt P19091 1-899)
[2]
  binding: binds

B1: Myc-tagged mPGC1α (protein, UniProt O70343 1-797)
chain: MAWDMCSQDSVWSDIECAALVGEDQPLCPDLPELDLSELDVNDLDTDSFLGGLKWCSDQSEIISNQYNNEPANIFEKIDEENEANLLAVLTETLDSLPVDEDGLPSFDALTDGAVTTDNEASPSSMPDGTPPPQEAEEPSLLKKLLLAPANTQLSYNECSGLSTQNHAANHTHRIRTNPAIVKTENSWSNKAKSICQQQKPQRRPCSELLKYLTTNDDPPHTKPTENRNSSRDKCASKKKSHTQPQSQHAQAKPTTLSLPLTPESPNDPKGSPFENKTIERTLSVELSGTAGLTPPTTPPHKANQDNPFKASPKLKPSCKTVVPPPTKRARYSECSGTQGSHSTKKGPEQSELYAQLSKSSGLSRGHEERKTKRPSLRLFGDHDYCQSLNSKTDILINISQELQDSRQLDFKDASCDWQGHICSSTDSGQCYLRETLEASKQVSPCSTRKQLQDQEIRAELNKHFGHPCQAVFDDKSDKTSELRDGDFSNEQFSKLPVFINSGLAMDGLFDDSEDESDKLSYPWDGTQPYSLFDVSPSCSSFNSPCRDSVSPPKSLFSQRPQRMRSRSRSFSRHRSCSRSPYSRSRSRSPGSRSSSRSCYYYESSHYRHRTHRNSPLYVRSRSRSPYSRRPRYDSYEAYEHERLKRDEYRKEHEKRESERAKQRERQKQKAIEERRVIYVGKIRPDTTRTELRDRFEVFGEIEECTVNLRDDGDSYGFITYRYTCDAFAALENGYTLRRSNETDFELYFCGRKQFFKSNYADLDTNSDDFDPASTKSKYDSLDFDSLLKEAQRSLRR
[3]
  binding: binds

B2: Estrogen-related receptor alpha (ERRα), endogenous in hepatocytes (protein, UniProt O08580 1-422)
chain: MSSQVVGIEPLYIKAEPASPDSPKGSSETETEPPVTLASGPAPARCLPGHKEEEDGEGAGSGEQGSGKLVLSSLPKRLCLVCGDVASGYHYGVASCEACKAFFKRTIQGSIEYSCPASNECEITKRRRKACQACRFTKCLRVGMLKEGVRLDRVRGGRQKYKRRPEVDPLPFPGPFPAGPLAVAGGPRKTAPVNALVSHLLVVEPEKLYAMPDPASPDGHLPAVATLCDLFDREIVVTISWAKSIPGFSSLSLSDQMSVLQSVWMEVLVLGVAQRSLPLQDELAFAEDLVLDEEGARAAGLGDLGAALLQLVRRLQALRLEREEYVLLKALALANSDSVHIEDAEAVEQLREALHEALLEYEAGRAGPGGGAERRRAGRLLLTLPLLRQTAGKVLAHFYGVKLEGKVPMHKLFLEMLEAMMD
[4]
  binding: binds
